The source of these data is publication PMC12040169 (PLOS Biology, 2025).

SMILES strings stand for the structures. Some of the results follow.

This assay has as its system T1, CTL2-GFP (C. trachomatis L2/434/Bu, GFP-expressing).
T1 construct: L2/434/Bu, GFP-expressing
Details: species or system HeLa; Intracellular C. trachomatis growth in HeLa cells, bulk GFP fluorescence relative to DMSO. Particulars: bulk GFP, single well; 28.5 h, 10 µM; inhibitor.
Turning to `CCc1ccc(NS(=O)(=O)c2cnn(CC)c2)cc1` [CBK270314], the “% of control remaining” value was determined as 90.8547%.

On to `O=c1[nH]c(-c2cc(Cc3ccccc3Cl)ccc2O)nc2ccccc12` [CBK291220], for which the “% of control remaining” value was determined as 128.725%.

For the compound `Cc1cc2ncc3c(n2n1)CC1CCC3N1Cc1ccc(F)c(F)c1` (stereo not shown) [CBK284378], the “% of control remaining” value turned out to be 104.784%.

Take `O=C(/C=C/c1ccccc1)ONC(=O)c1ccc(Cl)cc1` [CBK263702]: the “% of control remaining” value is 86.0779%.

On to `Cc1cc(NS(=O)(=O)c2ccc(Nc3nc(-c4cccs4)cs3)cc2)no1` [CBK262504], for which the “% of control remaining” value is on record as 15.739%.

With `O=S(=O)(Nc1cccc(Cl)c1Cl)c1ccc(Cl)c(Cl)c1` [CBK017446], the “% of control remaining” value stood at 116.349%.

Turning to `O=C(CSc1nnnn1C1CC1)Nc1ccc(CN2CCOCC2)cc1` [CBK305857], the “% of control remaining” value is reported as 116.339%.

For `FC(F)(F)c1cccc(OCCOc2nccnc2N2CCNCC2)c1` [CBK014518G], the “% of control remaining” value worked out at 94.883%.

In the case of `CCn1cc(C2CN(S(=O)(=O)c3cccc(C)c3Cl)CCO2)cn1` (stereo not shown) [CBK304226], the “% of control remaining” value worked out at 124.016%.

Consider `CC(=O)Nc1cccc(-n2nnnc2SCCCCCF)c1` [CBK306164], for which the “% of control remaining” value turned out to be 99.946%.

For the compound `N#Cc1ccnc(SCC(=O)Nc2ccc(CN3CCOCC3)cc2)c1` [CBK306010], the “% of control remaining” value turned out to be 110.551%.

Take `Cc1ccc(Oc2ncccc2NC(=O)CN2CCC(NC(=O)c3ccccc3)CC2)c2c1CCC2` [CBK074715]: the “% of control remaining” value turned out to be 94.4266%.

In the case of `O=C1CC2(C(=O)N1Cc1ccccc1)C(=O)N(Cc1csc(-c3ccccc3)n1)c1ccccc12` (stereo not shown) [CBK075673], the “% of control remaining” value is reported as 116.303%.

`O=S(=O)(Nc1ccc(Cc2ccncc2)cc1)N1CCCC1` [CBK268263]: the “% of control remaining” value amounted to 96.3277%.

As to `O=[N+]([O-])c1cccc(-c2cc(NCCc3ccccn3)ncn2)c1` [CBK091087], the “% of control remaining” value is recorded as 171.372%.

In the case of `O=c1ccc2cc(S(=O)(=O)Nc3ccc4[nH]ccc4c3)ccc2o1` [CBK062503], the “% of control remaining” value was 146.975%.

Consider `Cc1nnc(N2C(=O)c3oc4ccc(Cl)cc4c(=O)c3C2c2cccc(OCc3ccccc3)c2)s1` (stereo not shown) [CBK266870], for which the “% of control remaining” value came to 182.651%.

In the case of `O=C(CCN1C(=O)/C(=C\C=C\c2ccccc2)SC1=S)Nc1ccc(C(=O)O)cc1` [CBK264818], the “% of control remaining” value is 134.061%.

As to `CC(=O)Nc1cc(NC(C)=O)c(C)c(C(=O)O)c1` [CBK286623], the “% of control remaining” value is given as 127.717%.

`CC1CNCCC1n1nc(-c2cccs2)ccc1=O` (stereo not shown) [CBK284221]: the “% of control remaining” value is listed as 131.267%.

Regarding `Cn1c(=O)c2c(ncn2CC(=O)Nc2ccccc2I)n(C)c1=O` [CBK133275], the “% of control remaining” value is 124.837%.

Take `CC(=O)c1ccc(-c2cc(N3CCN(CCN4CCCC4)CC3)ncn2)s1` [CBK091169]: the “% of control remaining” value was 242.621%.

Take `CC(C)Cc1nnc(-c2ccccc2Cl)n1CC1CC1` [CBK200097]: the “% of control remaining” value came to 170.245%.

For the compound `CC(C)(C)OC(=O)N1CCC(CNS(=O)(=O)c2ccc3c(c2)OCCO3)CC1` [CBK076971], the “% of control remaining” value was 156.352%.

Turning to `Fc1ccc(COc2cccc(CNCc3ccccn3)c2)cc1` [CBK269987C], the “% of control remaining” value was determined as 115.99%.

In the case of `CC(C)(C)c1ccnc(N[C@H]2CO[C@H]3[C@@H]2OC[C@@H]3NC(=O)NCc2ccccc2)n1` [CBK289522], the “% of control remaining” value is given as 121.864%.

For `O=C(O)C1CNC(=O)N1C(=O)OCc1ccccc1` (stereo not shown) [CBK057462], the “% of control remaining” value was determined as 132.809%.

For the compound `Cc1ncsc1CCN(C)C(=O)Cn1nc(C)c2ccccc2c1=O` [CBK306893], the “% of control remaining” value is given as 151.145%.

With `O=[N+]([O-])c1ccc(CCNCC(O)COc2cccc3c2CCCC3)cc1` (stereo not shown) [CBK003083], the “% of control remaining” value amounted to 95.5559%.

Turning to `Cc1nn(Cc2nnc(SCC(=O)C(C)(C)C)o2)c(C)c1Br` [CBK005646], the “% of control remaining” value came out at 131.881%.

Consider `NC(=O)C1(N2CCCCC2)CCN(C(=S)Nc2ccc(S(N)(=O)=O)cc2)CC1` [CBK265900], for which the “% of control remaining” value was found to be 131.376%.

On to `CCCCS(=O)(=O)N1CCN(CCc2ccccc2)CC1` [CBK270316], for which the “% of control remaining” value is reported as 136.237%.

Consider `Cn1nnnc1SCc1nc(N)nc(Nc2ccccc2)n1` [CBK268092], for which the “% of control remaining” value was determined as 87.8451%.

In the case of `CC(=O)N1CCN(C[C@@H]2C=C(C)[C@H](Cc3nnc(C)o3)C[C@H]2C(C)C)CC1` [CBK289219], the “% of control remaining” value worked out at 89.7058%.

In the case of `Cc1ccc(C2=NN(C(=N)SC3CC(=O)N(c4ccc(C(=O)O)cc4)C3=O)C(c3ccc(Br)cc3)C2)cc1` (stereo not shown) [CBK263497], the “% of control remaining” value was 106.421%.

On to `O=C(c1ccccc1)c1cn[nH]c1-c1ccccc1O` [CBK287970], for which the “% of control remaining” value was determined as 126.904%.

Consider `COCCN(Cc1cnn(C)c1)C(=O)c1ccc2oc(C)cc2c1` [CBK307059], for which the “% of control remaining” value amounted to 117.155%.

With `CCn1cc(CN(CCOC)C(=O)c2cc3c(Cl)cccc3[nH]2)cn1` [CBK306903], the “% of control remaining” value turned out to be 71.7703%.

`Cc1ccc(S(=O)(=O)Nc2ccsc2C(=O)N2CCOCC2)cc1[N+](=O)[O-]` [CBK004612]: the “% of control remaining” value is 110.05%.

With `COc1ccc(CN2CCCN(c3cc(OC4CCCCC4)ncn3)CC2)cc1` [CBK083278T], the “% of control remaining” value was determined as 168.429%.

Consider `CCC(C)c1ccc(NC(=S)NCc2ccccn2)cc1` (stereo not shown) [CBK266966], for which the “% of control remaining” value stood at 144.454%.

Turning to `O=C(Nc1ccc(OC(F)(F)F)cc1)N1CCN(Cc2ccc3c(c2)OCO3)CC1` [CBK074754], the “% of control remaining” value came out at 103.661%.

`CCC(CC)C(=O)N1CCCC1c1nn(C)cc1-c1cc(C)no1` (stereo not shown) [CBK283452]: the “% of control remaining” value was 156.994%.

For `Brc1cccc(/C=N/N2CCN(Cc3cccc4ccccc34)CC2)c1` [CBK263011], the “% of control remaining” value was determined as 114.993%.

For `CCn1ncc(S(=O)(=O)N2CCCC(c3cccc(-c4cccc(OC)c4)n3)C2)c1C` (stereo not shown) [CBK286155], the “% of control remaining” value was 131.616%.

Regarding `CN1CCN(c2nc3ccccn3c(=O)c2/C=C2\SC(=S)N(CCc3ccccc3)C2=O)CC1` [CBK263131], the “% of control remaining” value was 100%.

Take `CC(C)(C)c1ccc(S(=O)(=O)N2CCCC[C@H]2COC(=O)CCC(=O)O)cc1` [CBK200063]: the “% of control remaining” value came out at 108.933%.

On to `COC(=O)C1CCN(Cc2ccc(-c3nnn(CC(=O)NCc4ccc(C)cc4)n3)cc2)C1` (stereo not shown) [CBK155406T], for which the “% of control remaining” value was 125.968%.

On to `O=S(=O)(Nc1ccc2[nH]ccc2c1)c1cc(C(F)(F)F)cc(C(F)(F)F)c1` [CBK156330], for which the “% of control remaining” value was determined as 108.268%.
